For two molecules, binding results are on record in article PMC6884552, “Glycogen branching enzyme controls cellular iron homeostasis via Iron Regulatory Protein 1 and mitoNEET” (Nature Communications, 2019).

The chains behind the UniProt entries cited, without tags or fusion partners.
UniProt P08985: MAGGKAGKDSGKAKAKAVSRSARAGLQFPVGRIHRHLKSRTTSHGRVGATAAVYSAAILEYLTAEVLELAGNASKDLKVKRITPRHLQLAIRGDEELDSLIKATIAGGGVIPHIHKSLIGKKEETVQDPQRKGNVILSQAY

In assay [1] the target is T1, Drosophila IRP1A in larvae (endogenously Flag-tagged IRP1A^3F as bait; endogenous IRP1A as prey) (Drosophila (endogenous in larvae)) (UniProt Q9VCV4).
T1 sequence: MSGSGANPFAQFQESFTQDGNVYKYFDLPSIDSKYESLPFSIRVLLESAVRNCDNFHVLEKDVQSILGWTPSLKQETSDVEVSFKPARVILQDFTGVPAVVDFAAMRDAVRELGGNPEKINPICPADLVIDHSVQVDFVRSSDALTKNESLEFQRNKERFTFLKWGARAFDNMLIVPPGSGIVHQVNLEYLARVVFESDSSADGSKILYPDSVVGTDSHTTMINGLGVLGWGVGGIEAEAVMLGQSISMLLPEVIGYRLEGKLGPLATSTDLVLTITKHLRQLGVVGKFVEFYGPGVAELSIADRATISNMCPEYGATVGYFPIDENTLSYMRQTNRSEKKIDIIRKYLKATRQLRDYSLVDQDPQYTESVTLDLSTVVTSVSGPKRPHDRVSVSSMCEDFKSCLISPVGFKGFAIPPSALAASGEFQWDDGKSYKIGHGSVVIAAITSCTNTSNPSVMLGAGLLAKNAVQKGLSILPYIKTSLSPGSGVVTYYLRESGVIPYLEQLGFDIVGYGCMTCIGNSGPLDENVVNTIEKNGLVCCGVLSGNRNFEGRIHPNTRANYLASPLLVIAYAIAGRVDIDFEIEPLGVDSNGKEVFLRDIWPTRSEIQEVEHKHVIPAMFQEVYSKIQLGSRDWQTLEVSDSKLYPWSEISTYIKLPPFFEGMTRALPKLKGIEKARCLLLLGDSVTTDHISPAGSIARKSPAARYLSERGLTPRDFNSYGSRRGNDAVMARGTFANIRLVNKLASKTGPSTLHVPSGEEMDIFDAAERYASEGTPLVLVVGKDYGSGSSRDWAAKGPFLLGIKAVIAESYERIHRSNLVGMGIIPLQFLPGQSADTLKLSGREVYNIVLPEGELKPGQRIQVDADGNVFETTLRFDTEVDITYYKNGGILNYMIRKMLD
The assay can be described thus: condition: only larvae reared for one generation on BPS (iron-depleted) food; affinity purification with mass spectrometry; whole-body larvae of IRP1A^3F flies reared for one generation (G1) on BPS-supplemented (iron-depleted) food; anti-Flag immunoprecipitation.

Assay [2] concerns the target T1, Drosophila IRP1A in larvae (endogenously Flag-tagged IRP1A^3F as bait; endogenous IRP1A as prey) (Drosophila (endogenous in larvae)). Description: condition: only larvae reared for two generations on BPS (iron-depleted) food; affinity purification with mass spectrometry; whole-body larvae of IRP1A^3F flies reared for two generations (G2) on BPS-supplemented (iron-depleted) food; anti-Flag immunoprecipitation.

Assay [3] has the same target. Description: affinity purification with mass spectrometry; whole-body L3 larvae with Flag-tagged knock-in alleles (AGBE^FCF, IRP1A^3F, IRP1B^3F) on regular food (IRP1A^3F also after one or two generations on BPS food); 0.2% formaldehyde cross-linking in vivo; anti-Flag M2 affinity gel, 2 h, 4 °C; proteins found in untagged controls removed.
The target is the same in assay [4]. The assay can be described thus: affinity purification with mass spectrometry; prothoracic gland cells purified from dissected brain-ring gland complexes (CD8.Venus, anti-CD8 beads); 0.2% formaldehyde cross-linking; anti-Flag immunoprecipitation as for whole body.
Assay [5] concerns the target T2, transgenic Flag-tagged Drosophila IRP1A C450S expressed in flies (Drosophila) (UniProt Q9VCV4).
T2 sequence: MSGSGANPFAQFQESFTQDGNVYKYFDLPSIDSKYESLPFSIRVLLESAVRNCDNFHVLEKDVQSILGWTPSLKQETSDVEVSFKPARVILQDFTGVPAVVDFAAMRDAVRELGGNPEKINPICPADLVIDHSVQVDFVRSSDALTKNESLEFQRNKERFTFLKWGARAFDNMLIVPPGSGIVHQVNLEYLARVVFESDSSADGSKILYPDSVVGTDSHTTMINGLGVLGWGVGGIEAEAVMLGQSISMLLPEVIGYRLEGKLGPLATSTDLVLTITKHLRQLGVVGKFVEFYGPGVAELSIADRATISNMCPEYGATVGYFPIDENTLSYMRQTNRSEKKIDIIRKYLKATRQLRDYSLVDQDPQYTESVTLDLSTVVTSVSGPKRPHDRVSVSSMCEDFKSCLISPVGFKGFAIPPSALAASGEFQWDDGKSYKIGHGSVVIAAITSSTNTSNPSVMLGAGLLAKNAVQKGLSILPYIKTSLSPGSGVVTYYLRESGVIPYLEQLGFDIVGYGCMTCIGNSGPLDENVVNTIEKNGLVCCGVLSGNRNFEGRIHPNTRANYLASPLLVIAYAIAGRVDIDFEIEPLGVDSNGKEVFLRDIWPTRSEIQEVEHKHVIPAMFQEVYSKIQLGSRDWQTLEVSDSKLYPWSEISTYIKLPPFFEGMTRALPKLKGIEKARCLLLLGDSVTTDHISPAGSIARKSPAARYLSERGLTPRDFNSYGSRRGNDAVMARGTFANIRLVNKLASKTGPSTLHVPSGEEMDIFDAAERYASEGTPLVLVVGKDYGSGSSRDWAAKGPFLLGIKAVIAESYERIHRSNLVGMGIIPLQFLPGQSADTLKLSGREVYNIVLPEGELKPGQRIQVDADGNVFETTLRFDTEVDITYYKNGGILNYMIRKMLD
Description: affinity purification with mass spectrometry; samples from four fly strains expressing Flag-tagged transgenes IRP1A^C450S, IRP1B^C447S, IRP1A^3R3Q or IRP1B^3R3Q; anti-Flag immunoprecipitation; tissue per sample in Supplementary Table 2.

Assay [6] deals with T1, Drosophila IRP1A in larvae (endogenously Flag-tagged IRP1A^3F as bait; endogenous IRP1A as prey) (Drosophila (endogenous in larvae)). The assay can be described thus: affinity purification with mass spectrometry; whole-body L3 larvae with Flag-tagged knock-in alleles (AGBE^FCF, IRP1A^3F, IRP1B^3F) on regular food (IRP1A^3F also after one or two generations on BPS food); 0.2% formaldehyde cross-linking in vivo; anti-Flag M2 affinity gel, 2 h, 4 °C; proteins found in untagged controls removed. This is another data set of the same source.

Assay [7] addresses T3, Drosophila IRP1B in larvae (endogenously Flag-tagged IRP1B^3F as bait; endogenous IRP1B as prey) (Drosophila (endogenous in larvae)) (UniProt Q9VGZ3).
T3 sequence: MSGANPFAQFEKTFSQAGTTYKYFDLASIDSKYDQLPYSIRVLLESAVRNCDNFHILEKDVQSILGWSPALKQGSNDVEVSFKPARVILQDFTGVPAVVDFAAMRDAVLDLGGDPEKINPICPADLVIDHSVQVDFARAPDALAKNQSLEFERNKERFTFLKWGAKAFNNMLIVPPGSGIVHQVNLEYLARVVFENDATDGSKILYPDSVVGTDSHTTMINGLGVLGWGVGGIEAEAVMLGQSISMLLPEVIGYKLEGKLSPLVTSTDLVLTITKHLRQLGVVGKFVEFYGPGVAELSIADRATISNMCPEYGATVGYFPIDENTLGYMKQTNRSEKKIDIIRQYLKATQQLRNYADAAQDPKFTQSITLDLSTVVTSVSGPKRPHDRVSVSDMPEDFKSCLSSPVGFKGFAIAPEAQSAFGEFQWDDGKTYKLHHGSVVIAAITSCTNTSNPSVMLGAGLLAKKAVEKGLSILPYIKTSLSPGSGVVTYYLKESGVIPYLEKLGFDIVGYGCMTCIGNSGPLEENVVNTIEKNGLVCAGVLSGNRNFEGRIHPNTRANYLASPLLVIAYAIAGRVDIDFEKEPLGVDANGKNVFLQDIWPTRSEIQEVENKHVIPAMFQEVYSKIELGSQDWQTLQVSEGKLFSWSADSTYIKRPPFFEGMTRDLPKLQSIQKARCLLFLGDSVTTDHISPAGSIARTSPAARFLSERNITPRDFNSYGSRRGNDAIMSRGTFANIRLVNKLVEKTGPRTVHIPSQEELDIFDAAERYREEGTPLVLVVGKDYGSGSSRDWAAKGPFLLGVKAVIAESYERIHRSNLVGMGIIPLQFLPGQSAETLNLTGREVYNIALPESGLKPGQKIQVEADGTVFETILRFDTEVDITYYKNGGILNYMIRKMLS
The description is as above.

These are yes or no findings as the source states them, for the method shown. Binding seen in cells or lysates may run through a third protein. These calls come from enrichment with a bait or labelling near it, and not all partners need be listed. For part of these data: No binding means not detected with the bait. Where a sequence is shown, tags or fusion partners need not be part of it.

Consider “Drosophila histone H2Av, endogenous in larvae (from UniProt P08985 1-141)”, for which the binding result in assay [1] is recorded as “no binding”; in assay [2] it was “no binding”; in assay [3], “binds”.

B1: Drosophila AGBE in larvae (endogenously Flag-tagged AGBE^FCF as bait; endogenous AGBE as prey) (enzyme, UniProt A1Z992 1-685)
chain: MAEAKDIEKLFETDGYLRPFEHEIRRRHGVLEDWLNKINQSEGGLDGFSTAYKHYGLHFQPDNSVIAREWAPGARDVYLTGDFNNWHWESHPFKKLDFGKWELHLPPNEDGSPAIKHLSEIKIIIRNHSGQLLDRLSPWAKYVVQPPKSANQGVNYKQYVWEPPSYERYQRQHPGPPRPKSLRIYECHVGIASQEPRVGSYDEFADRIVPRIKRQGYNCIQVMAIMEHAYYASFGYQVTSFYAASSRYGNPEQLKRMIDVAHSHGLFVLLDVVHSHASKNVQDGLNQFDGTNSCFFHDGARGEHSLWDSRLFNYVEYEVLRFLLSNLRWWHDEYNFDGYRFDGVTSMLYHSRGIGEGFSGDYNEYFGLNVDTDALNYLGLANHLLHTIDSRIITIAEDVSGMPTLCRPVSEGGIGFDYRLGMAIPDKWIELLKEQSDDEWDMGNLVHTLTNRRWMENTVAYAESHDQALVGDKTIAFWLMDKEMYTHMSTLSDSSVIIDRGLALHKMIRLITHALGGEAYLNFMGNEFGHPEWLDFPRVGNNDSYHYARRQWNLVDDDLLKYKYLNEFDRAMNEAEERYGWLHSGPAWVSWKHEGDKIIAFERAGLVFVFNFHPQQSFTGYRVGTNWAGTYQAVLSSDDPLFGGHNRIDANCKHPSNPEGYAGRSNFIEVYTPSRTAVVYARVSD
For B1, the binding entry in assay [4] is listed as “binds”; in assay [5], “no binding”; in assay [1], “no binding”; in assay [2], “no binding”; in assay [6], “binds”; in assay [7] it was “binds”.
